Test results published in patent US9320698B2, “Peptide tyrosinase inhibitors and uses thereof” (Escape Therapeutics, Inc., priority 2011, dated 2016).
Read-outs that look alike come from different tables or passages of the source. Not every detail of the peptide structures is certain; ends, links or a residue may be inferred. Some results were stated once for a whole list of compounds, not compound by compound. Some ranges recur; such a range may be that of the whole group of compounds. No end group written: not given here.

Chains of the proteins cited; added tags and fusions are not shown. Residues count along the entry.
UniProt C7FF04, 1-392: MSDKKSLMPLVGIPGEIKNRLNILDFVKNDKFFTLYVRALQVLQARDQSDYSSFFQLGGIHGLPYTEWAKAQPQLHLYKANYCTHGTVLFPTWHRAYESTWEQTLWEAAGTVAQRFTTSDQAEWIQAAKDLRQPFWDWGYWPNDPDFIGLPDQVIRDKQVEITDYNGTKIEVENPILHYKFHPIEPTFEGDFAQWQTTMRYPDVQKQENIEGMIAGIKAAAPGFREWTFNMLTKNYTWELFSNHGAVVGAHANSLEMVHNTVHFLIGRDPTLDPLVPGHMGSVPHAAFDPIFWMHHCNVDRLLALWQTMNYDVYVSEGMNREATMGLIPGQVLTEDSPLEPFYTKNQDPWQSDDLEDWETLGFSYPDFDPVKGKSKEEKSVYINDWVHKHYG

Assays:
mushroom tyrosinase [1] = biological target: T1, mushroom tyrosinase (Agaricus bisporus, UniProt C7FF04); assay: Enzymatic assay of mushroom tyrosinase, L-tyrosine as substrate; type: biochemical
Description: The assay mixture was incubated at 37° C.
In order to assess this potential, their inhibitory activity against mushroom tyrosinase was tested.

[2] = test system: primary human melanocytes; details: 6 d; for reduction in viability: 1-3 mM; for cell death (in words): up to 300 μM
Description: (§1) Cells were seeded at equal numbers and incubated with varying concentrations of test samples for 1 day, 3 days and 6 days, harvested, stained with trypan blue, and then counted. The assay was carried out in triplicate, and the % cell death was calculated according to the formula shown in Examples.
(§2) Cellular toxicity was measured using a trypan blue dye exclusion assay. Cells were cultured in 6-well plates at a density of 4×10^5 cells/well for 1, 3, or 6 d in 2 ml of medium. […] The plates were incubated at 37° C. in a humidified 5% CO2 chamber, harvested at the appropriate time, treated with trypan blue, and then counted using a hemacytometer. Cytotoxicity was measured according to the following formula: [1−(# of cells in control−# of live cells in test sample)/# of cells in control]×100%.
(§3) The cytotoxic effect of P16-18 on primary human melanocytes, keratinocytes, and fibroblasts were then assessed at 1, 3, and 6 d using trypan blue exclusion.

[3] = test system: primary human fibroblasts; details: 6 d; for reduction in viability: 1-3 mM; for cell death (in words): up to 300 μM
Description: as §1, §2, §3

[4] = test system: primary human keratinocytes; details: 6 d; for cell death: 300 μM; for rate of cell death: 3 mM
Description: as §1, §2, §3

mushroom tyrosinase [5] = biological target: T1, mushroom tyrosinase; assay: Kinetic studies of mushroom tyrosinase (Lineweaver-Burk, nonlinear regression); type: biochemical; details: Table 4; from Lineweaver Burk plots
Description: The concentration of mushroom tyrosinase [E] was 24 units/ml. […] [I] ranged from 0 to 0.3 mM. Data were obtained as mean values of 1/V, inverse of the increase of absorbance at wavelength of 475 nm per minute (ΔA475/min) for 5 independent trials. Michaelis Menten constant (Km) and the dissociation constant Ki were derived using nonlinear regression analysis with GraphPad Prism 5.
Experiments were conducted using the same protocol as above except for changes in concentration of [E], [S] and [I]. [E] was 24 units/ml, [S] was 0.05, 0.1, 0.25, 0.5, 0.75 and 1 mM, and [I] was 0, 0.03, 0.1, 0.3 and 1 mM. Lineweaver-Burk reciprocal plots were generated to determine the mode of inhibition (Burk, D., Lineweaver, H., and Horner, C. K. (1934) J Bacteriol 27, 325-340), and Michaelis Menten plots were used to determine Vmax and Km. Nonlinear regression using GraphPad Prism 5 software was used to determine Ki. Prism calculates the Ki using the equation of Cheng, Y., and Prusoff, W. H. (1973) Biochem Pharmacol 22, 3099-3108.

Substance | tyrosinase inhibition (in words) (mushroom tyrosinase [1]) | tyrosinase inhibition (in words) (mushroom tyrosinase [1]; listed as peptide P15) | tyrosinase inhibition (in words) (mushroom tyrosinase [1]; listed as peptide P14) | reduction in viability [2] | cell death (in words) [2] | reduction in viability [3] | cell death (in words) [3] | cell death [4] | rate of cell death [4] | Nature of inhibition (mushroom tyrosinase [5]) | tyrosinase inhibition (in words) (mushroom tyrosinase [1]; listed as peptide P13)
RRFVCC [Peptide P15] | weak inhibitors | weak inhibition |  |  |  |  |  |  |  |  | 
RRFVLL [Peptide P14] | weak inhibitors |  | weak inhibition |  |  |  |  |  |  |  | 
RRRYWYYR [Peptide P17] | potent tyrosinase inhibitory activity |  |  | 5-10% | did not result in significant cell death | 5-10% | did not result in significant cell death | less than 2.5% | less than 10% | Competitive | 
RRVAL [Peptide P13] | weak inhibitors |  |  |  |  |  |  |  |  |  | weak inhibition
RRWWRRYY [Peptide P16] | potent tyrosinase inhibitory activity |  |  | 5-10% | did not result in significant cell death | 5-10% | did not result in significant cell death | less than 2.5% | less than 10% | Competitive | 
RRYWYWRR [Peptide P18] | potent tyrosinase inhibitory activity |  |  | 5-10% | did not result in significant cell death | 5-10% | did not result in significant cell death | less than 2.5% | less than 10% | Competitive | 
